For 29 targets, log2 fold change results are on record in the supplement of paper PMC12819154, “High-throughput peptide-centric local stability assay extends protein–ligand identification to membrane proteins, tissues and bacteria” (Nature Structural & Molecular Biology, 2025).

Protein sequences, listed by entry. Tags and fused reporters are not part of them. Lines headed by an entry give the natural chain unless they say otherwise; changes in a name come on top.
UniProt O96015: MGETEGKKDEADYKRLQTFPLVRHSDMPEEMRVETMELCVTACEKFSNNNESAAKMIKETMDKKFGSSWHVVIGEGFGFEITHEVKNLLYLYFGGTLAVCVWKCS
UniProt O95785: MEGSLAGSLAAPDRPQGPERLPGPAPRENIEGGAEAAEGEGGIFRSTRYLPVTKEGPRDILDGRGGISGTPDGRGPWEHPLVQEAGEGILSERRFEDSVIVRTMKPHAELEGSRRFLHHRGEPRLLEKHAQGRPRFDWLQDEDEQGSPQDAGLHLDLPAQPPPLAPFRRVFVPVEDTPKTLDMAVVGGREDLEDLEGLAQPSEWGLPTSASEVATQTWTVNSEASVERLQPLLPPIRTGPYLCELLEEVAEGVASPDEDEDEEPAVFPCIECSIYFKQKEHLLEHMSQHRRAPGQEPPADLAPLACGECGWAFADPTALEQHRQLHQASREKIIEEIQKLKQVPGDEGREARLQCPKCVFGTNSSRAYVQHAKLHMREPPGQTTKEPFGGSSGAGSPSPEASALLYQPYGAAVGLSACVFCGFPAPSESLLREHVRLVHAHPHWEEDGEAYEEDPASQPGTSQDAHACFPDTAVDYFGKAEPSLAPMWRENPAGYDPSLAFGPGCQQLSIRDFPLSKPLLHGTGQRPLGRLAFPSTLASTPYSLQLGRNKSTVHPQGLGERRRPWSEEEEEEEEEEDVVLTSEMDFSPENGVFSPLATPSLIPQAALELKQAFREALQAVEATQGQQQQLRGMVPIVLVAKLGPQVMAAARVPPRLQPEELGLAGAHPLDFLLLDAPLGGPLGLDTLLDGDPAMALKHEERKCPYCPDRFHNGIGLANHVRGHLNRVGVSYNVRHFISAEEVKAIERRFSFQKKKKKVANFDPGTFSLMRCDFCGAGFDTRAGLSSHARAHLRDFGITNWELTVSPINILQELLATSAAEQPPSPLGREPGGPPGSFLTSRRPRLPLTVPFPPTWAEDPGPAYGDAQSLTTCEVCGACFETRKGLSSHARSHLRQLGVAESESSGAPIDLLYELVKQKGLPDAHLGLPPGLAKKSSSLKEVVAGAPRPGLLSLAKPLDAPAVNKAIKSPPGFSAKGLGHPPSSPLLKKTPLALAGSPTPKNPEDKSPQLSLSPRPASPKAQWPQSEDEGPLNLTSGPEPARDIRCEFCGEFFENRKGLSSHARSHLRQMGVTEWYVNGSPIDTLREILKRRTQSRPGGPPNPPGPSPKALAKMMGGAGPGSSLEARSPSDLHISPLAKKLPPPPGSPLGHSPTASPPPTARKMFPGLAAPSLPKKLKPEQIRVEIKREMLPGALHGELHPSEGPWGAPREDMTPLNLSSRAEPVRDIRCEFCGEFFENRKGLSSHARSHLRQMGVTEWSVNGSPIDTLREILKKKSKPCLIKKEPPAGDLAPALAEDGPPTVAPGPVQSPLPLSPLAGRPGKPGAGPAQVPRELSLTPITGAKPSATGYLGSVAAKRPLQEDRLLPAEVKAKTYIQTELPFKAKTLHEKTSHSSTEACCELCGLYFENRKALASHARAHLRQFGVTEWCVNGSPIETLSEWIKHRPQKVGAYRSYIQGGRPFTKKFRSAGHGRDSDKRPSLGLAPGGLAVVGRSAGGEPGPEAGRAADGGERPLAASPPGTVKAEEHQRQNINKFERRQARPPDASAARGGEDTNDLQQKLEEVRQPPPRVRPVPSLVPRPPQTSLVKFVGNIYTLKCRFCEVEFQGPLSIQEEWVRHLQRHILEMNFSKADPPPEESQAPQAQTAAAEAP
UniProt O75629: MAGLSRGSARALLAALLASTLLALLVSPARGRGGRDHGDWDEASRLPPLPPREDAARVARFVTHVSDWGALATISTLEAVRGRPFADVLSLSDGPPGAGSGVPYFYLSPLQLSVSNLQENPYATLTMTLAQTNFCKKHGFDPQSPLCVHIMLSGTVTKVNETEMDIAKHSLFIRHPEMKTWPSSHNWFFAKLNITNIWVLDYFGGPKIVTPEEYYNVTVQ
UniProt O95391: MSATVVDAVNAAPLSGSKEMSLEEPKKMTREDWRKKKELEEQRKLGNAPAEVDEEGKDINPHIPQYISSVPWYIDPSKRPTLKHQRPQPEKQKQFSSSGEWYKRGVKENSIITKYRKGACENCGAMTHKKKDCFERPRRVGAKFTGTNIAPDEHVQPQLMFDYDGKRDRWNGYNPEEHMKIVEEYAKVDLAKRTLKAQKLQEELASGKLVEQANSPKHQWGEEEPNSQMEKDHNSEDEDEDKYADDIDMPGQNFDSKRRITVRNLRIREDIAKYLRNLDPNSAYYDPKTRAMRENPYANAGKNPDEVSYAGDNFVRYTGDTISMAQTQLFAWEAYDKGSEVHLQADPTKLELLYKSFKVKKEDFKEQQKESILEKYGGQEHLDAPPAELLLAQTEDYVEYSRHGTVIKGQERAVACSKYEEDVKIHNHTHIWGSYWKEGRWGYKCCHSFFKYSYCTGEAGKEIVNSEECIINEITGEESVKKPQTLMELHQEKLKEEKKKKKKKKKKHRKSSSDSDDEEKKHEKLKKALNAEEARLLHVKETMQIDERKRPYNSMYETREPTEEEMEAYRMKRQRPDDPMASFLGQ
UniProt O95989: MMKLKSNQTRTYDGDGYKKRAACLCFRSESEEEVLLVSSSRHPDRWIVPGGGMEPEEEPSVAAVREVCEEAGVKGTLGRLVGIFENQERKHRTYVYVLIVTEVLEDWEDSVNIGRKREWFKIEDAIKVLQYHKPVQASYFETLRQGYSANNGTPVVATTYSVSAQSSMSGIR
UniProt O94761: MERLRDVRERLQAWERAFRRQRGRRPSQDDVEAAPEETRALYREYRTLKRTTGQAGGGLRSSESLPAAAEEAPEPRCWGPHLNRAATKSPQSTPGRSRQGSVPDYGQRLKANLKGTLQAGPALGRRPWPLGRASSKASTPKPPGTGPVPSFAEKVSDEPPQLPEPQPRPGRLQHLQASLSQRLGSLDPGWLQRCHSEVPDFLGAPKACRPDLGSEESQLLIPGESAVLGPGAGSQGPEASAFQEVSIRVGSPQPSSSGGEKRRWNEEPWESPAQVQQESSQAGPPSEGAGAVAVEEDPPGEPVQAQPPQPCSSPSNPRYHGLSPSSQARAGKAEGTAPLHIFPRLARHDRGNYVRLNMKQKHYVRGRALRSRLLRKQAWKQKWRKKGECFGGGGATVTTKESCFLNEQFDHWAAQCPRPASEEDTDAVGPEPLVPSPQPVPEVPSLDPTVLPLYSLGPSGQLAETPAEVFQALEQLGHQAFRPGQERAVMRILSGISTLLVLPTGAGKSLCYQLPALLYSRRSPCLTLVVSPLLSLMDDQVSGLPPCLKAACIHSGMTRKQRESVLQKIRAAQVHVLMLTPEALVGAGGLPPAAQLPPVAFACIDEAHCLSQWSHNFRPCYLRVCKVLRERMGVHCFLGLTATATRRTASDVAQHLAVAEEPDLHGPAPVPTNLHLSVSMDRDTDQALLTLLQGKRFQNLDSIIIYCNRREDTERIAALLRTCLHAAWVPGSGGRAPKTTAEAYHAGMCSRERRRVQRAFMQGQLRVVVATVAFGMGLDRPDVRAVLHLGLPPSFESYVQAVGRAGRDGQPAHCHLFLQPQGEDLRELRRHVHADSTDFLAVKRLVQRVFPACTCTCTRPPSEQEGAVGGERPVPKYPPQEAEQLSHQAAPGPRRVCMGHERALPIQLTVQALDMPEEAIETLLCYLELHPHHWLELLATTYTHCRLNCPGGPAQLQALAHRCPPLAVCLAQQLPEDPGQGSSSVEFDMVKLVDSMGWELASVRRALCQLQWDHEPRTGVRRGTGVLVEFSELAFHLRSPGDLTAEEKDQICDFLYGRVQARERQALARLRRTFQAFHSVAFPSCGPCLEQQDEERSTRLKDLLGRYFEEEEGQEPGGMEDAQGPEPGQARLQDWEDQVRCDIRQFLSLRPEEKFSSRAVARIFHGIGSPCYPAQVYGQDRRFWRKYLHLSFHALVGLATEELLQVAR
UniProt O95696: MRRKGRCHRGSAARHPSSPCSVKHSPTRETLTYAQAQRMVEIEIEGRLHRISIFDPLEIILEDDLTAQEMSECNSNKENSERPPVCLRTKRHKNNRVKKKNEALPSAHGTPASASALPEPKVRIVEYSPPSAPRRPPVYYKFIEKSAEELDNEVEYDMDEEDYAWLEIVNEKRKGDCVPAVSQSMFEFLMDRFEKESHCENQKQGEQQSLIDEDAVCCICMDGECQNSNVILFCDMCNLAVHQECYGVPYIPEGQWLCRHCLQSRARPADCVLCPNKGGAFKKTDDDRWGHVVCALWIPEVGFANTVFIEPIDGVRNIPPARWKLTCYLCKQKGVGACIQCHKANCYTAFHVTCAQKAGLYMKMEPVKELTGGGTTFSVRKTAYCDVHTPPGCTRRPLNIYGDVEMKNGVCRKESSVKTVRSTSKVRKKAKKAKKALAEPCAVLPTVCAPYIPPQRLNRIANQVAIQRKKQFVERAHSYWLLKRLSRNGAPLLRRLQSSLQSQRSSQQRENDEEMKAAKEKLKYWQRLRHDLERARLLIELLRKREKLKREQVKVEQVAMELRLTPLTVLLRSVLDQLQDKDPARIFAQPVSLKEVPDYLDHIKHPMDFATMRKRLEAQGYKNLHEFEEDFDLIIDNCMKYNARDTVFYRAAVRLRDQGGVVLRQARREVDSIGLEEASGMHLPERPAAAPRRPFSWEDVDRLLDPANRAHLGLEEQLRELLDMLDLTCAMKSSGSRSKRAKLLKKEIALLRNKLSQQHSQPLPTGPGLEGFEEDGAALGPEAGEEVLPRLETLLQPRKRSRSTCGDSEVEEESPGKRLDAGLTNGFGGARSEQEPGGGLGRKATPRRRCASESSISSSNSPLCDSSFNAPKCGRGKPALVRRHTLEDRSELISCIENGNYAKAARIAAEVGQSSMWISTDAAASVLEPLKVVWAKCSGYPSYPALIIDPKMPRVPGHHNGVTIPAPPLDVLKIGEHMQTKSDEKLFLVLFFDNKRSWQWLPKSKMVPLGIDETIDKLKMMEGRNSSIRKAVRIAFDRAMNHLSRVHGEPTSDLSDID
UniProt O75920: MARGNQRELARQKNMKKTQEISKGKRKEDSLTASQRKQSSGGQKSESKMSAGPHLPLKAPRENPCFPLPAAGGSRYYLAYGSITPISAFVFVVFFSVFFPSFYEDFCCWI
UniProt O75531: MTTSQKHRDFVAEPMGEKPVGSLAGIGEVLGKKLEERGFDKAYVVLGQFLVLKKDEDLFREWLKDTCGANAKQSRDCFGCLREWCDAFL
UniProt O75911: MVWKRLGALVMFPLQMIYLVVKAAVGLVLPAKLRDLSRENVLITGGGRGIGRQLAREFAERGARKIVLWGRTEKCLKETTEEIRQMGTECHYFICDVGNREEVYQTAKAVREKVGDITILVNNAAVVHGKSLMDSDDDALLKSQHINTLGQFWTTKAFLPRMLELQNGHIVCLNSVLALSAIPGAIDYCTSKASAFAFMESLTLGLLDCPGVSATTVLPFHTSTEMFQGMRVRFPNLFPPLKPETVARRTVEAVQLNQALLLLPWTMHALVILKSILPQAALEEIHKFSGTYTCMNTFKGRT
UniProt O94829: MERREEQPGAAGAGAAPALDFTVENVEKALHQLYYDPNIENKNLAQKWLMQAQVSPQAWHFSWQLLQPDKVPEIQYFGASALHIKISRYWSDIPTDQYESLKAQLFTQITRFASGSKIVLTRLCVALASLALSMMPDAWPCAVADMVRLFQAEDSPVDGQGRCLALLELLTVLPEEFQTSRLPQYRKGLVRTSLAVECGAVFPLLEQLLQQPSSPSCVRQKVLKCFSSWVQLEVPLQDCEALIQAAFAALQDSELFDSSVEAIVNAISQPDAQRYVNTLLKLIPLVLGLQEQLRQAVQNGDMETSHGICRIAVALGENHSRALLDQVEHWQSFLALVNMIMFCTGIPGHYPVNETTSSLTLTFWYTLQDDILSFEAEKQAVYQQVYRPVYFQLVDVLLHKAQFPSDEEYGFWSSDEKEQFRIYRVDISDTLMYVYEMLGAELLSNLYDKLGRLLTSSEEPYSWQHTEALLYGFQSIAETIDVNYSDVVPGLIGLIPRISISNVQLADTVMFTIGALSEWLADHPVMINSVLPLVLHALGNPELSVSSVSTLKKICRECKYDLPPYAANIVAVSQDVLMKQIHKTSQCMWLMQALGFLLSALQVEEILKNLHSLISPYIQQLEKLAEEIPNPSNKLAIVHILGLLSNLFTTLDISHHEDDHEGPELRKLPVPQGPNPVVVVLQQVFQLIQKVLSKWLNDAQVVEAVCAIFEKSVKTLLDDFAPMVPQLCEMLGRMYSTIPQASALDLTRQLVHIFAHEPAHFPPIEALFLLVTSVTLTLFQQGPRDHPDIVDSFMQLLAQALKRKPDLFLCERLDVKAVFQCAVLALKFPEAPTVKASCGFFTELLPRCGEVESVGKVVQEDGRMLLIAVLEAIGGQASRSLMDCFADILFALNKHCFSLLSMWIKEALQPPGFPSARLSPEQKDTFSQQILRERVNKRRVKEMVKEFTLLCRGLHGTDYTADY

The other results are listed elsewhere or left out. Most entries show no effect beyond the scatter of the controls.

Compound in the assay: Cc1nc(Nc2ncc(C(=O)Nc3c(C)cccc3Cl)s2)cc(N2CCN(CCO)CC2)n1 [dasatinib]
The assay is described as follows: log2 fold change of tryptic peptide abundance, ligand vs vehicle (limited proteolysis) (log2 ratio); higher = more trypsin-susceptible (destabilized). The conditions noted are these: ligand concentration: 5 uM; sample: K562 cleared lysate.
With “UniProt O96015 (peptide sequence: FSNNNESAAK, peptide start residue: 46)”, the log2 fold change was 0.31.

As for “WIZ (peptide sequence: EVVAGAPRPGLLSLAK, peptide start residue: 940) (UniProt O95785)”, the log2 fold change is -0.537.

For the target “UniProt O94880 (peptide sequence: NSAEEEVLSSEK, peptide start residue: 83)”, the log2 fold change was found to be 0.116.

Take “CREG1 (peptide sequence: DHGDWDEASR, peptide start residue: 36) (UniProt O75629)”: the log2 fold change is -0.0163.

In the case of “ZNF324 (peptide sequence: RNPGSWSLTEDRDVSGEWPR, peptide start residue: 77) (UniProt O75467)”, the log2 fold change was found to be 0.239.

In the case of “MFN2 (peptide sequence: LSRPNIFILNNR, peptide start residue: 248) (UniProt O95140)”, the log2 fold change was determined as 0.269.

Turning to “SLU7 (peptide sequence: KKELEEQR, peptide start residue: 36) (UniProt O95391)”, the log2 fold change is -0.952.

As to “UniProt O75808 (peptide sequence: LAELLSGKR, peptide start residue: 286)”, the log2 fold change is 0.238.

“CRYZL1 (peptide sequence: AYTALHYLSHLSPGK, peptide start residue: 132) (UniProt O95825)”: the log2 fold change came to 0.206.

As to “GLRX3 (peptide sequence: GNKQEAKCGFSK, peptide start residue: 254) (UniProt O76003)”, the log2 fold change was -0.714.

Regarding “UniProt O75771 (peptide sequence: EGLALMMQLAR, peptide start residue: 222)”, the log2 fold change was -0.403.

For the target “DDAH2 (peptide sequence: TVVAGSSDAAQK, peptide start residue: 183) (UniProt O95865)”, the log2 fold change is -0.193.

Take “PSMG1 (peptide sequence: TSLEVSLLEK, peptide start residue: 56) (UniProt O95456)”: the log2 fold change came out at 0.377.

Turning to “MPZL1 (peptide sequence: KSPSDTEGLVK, peptide start residue: 218) (UniProt O95297)”, the log2 fold change was -0.0228.

Consider “NUDT3 (peptide sequence: TYDGDGYK, peptide start residue: 11) (UniProt O95989)”, for which the log2 fold change worked out at 0.103.

For “UniProt P00491 (peptide sequence: ANHEEVLAAGK, peptide start residue: 255)”, the log2 fold change turned out to be 0.173.

“SUPT7L (peptide sequence: IKDYHSYMLQISK, peptide start residue: 239) (UniProt O94864)”: the log2 fold change was -0.239.

Take “GMNN (peptide sequence: MIQPSASGSLVGR, peptide start residue: 28) (UniProt O75496)”: the log2 fold change is 0.131.

As for “RECQL4 (peptide sequence: GRRPSQDDVEAAPEETR, peptide start residue: 23) (UniProt O94761)”, the log2 fold change amounted to 0.352.

“IPO7 (peptide sequence: FKSDQNLQTALELTRR, peptide start residue: 488) (UniProt O95373)”: the log2 fold change worked out at 0.566.

Consider “APBA3 (peptide sequence: TMPAATYR, peptide start residue: 557) (UniProt O96018)”, for which the log2 fold change is 0.183.

As to “UniProt O95696 (peptide sequence: LDAGLTNGFGGAR, peptide start residue: 819)”, the log2 fold change is -0.278.

For the target “UniProt O75920 (peptide sequence: RKEDSLTASQR, peptide start residue: 26)”, the log2 fold change was 0.187.

For “STC2 (peptide sequence: AHHGEAGHHLPEPSSR, peptide start residue: 237) (UniProt O76061)”, the log2 fold change is 0.363.

As for “BAG4 (peptide sequence: SGYGPSDGPSYGR, peptide start residue: 7) (UniProt O95429)”, the log2 fold change is -0.116.

With “BANF1 (peptide sequence: EWLKDTCGANAK, peptide start residue: 61) (UniProt O75531)”, the log2 fold change came to 0.153.

As for “DHRS3 (peptide sequence: SLMDSDDDALLK, peptide start residue: 131) (UniProt O75911)”, the log2 fold change is -0.345.

Regarding “IPO13 (peptide sequence: CGEVESVGK, peptide start residue: 848) (UniProt O94829)”, the log2 fold change is -0.279.

As to “SOD1 (peptide sequence: KHGGPKDEER, peptide start residue: 71) (UniProt P00441)”, the log2 fold change is -0.63.
